The values that follow come from patent US12410228B2 (UNIVERSITY OF UTAH RESEARCH FOUNDATION, priority 2016, dated 2025).

The data set is described as follows: general procedure: Fmoc solid-phase peptide synthesis; Fmoc-Cys(Trt)-Rink Amide MBHA resin (0.21 mmol/g) for chain A; Fmoc-Arg(Pbf)-Wang resin (0.4 mmol/g) for chain B; HATU/DIEA. As to conditions: oxidative folding step, several disulfide bridges, sequence written open.

With Con-Ins G1, the “final HPLC purity” value (214 and 280 nm) was 89%. The oxidative folding yield reads like this: (based on the starting amount of purified chain A) 4%; (on partially folded product) 35%. Moreover, the “final purity (method not given)” value (capillary electrophoresis, 214 nm) is on record as 80%.
